Test results published in publication PMC9070665.
Results are given in words; binding and its absence hold for the method and conditions named. Binding seen in cells or lysates may run through a third protein. Some binding calls cover weakened binding; strength is not graded here. Tags and fused reporters may be left off the sequences shown.

Protein sequences, listed by entry. Tags and fused reporters are not part of them.
UniProt Q96S21: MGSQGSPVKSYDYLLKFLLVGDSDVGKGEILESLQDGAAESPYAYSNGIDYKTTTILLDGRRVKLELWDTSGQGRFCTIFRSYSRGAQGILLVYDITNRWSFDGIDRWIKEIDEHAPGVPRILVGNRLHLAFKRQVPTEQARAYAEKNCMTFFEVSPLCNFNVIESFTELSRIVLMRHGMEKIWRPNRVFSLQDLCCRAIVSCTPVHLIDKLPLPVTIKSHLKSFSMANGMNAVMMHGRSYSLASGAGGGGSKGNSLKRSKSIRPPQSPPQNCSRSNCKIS

Assays:
Experiment in all cases: co-IP; 293T cells co-transfected with HA-Rab40c and one FLAG-tagged PP6 component or PP6R1 deletion mutant; anti-FLAG IP, anti-HA blot
[1] = molecular target: T1, FLAG-ANKRD28 (human) (UniProt O15084)
T1 sequence: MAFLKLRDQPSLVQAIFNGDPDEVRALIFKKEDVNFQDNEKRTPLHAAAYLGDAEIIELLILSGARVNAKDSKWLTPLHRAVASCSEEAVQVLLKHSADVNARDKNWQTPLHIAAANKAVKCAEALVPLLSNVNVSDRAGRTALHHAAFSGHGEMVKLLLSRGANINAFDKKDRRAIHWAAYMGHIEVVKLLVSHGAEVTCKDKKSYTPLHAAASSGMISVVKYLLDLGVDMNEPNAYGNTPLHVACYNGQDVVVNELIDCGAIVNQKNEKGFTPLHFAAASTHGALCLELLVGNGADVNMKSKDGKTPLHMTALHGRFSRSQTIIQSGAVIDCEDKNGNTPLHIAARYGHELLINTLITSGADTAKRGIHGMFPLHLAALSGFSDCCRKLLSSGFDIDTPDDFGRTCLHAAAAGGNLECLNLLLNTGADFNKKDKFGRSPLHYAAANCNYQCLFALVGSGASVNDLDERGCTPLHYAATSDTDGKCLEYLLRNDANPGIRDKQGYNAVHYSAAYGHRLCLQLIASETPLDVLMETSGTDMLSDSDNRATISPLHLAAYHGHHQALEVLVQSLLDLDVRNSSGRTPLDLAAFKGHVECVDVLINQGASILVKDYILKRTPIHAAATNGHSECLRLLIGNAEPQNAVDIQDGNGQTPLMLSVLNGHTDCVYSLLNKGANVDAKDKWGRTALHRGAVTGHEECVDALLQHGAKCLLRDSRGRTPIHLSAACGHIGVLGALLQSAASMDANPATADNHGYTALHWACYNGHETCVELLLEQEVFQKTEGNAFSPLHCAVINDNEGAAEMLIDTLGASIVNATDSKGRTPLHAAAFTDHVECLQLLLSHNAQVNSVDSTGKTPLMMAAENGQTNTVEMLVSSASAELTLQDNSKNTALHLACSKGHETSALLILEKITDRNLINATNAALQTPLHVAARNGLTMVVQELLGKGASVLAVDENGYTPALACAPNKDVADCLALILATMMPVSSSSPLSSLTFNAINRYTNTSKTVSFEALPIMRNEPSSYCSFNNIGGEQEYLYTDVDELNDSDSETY

[2] = molecular target: T2, FLAG-PP6R1(518-881) (human) (UniProt Q9UPN7)
T2 sequence: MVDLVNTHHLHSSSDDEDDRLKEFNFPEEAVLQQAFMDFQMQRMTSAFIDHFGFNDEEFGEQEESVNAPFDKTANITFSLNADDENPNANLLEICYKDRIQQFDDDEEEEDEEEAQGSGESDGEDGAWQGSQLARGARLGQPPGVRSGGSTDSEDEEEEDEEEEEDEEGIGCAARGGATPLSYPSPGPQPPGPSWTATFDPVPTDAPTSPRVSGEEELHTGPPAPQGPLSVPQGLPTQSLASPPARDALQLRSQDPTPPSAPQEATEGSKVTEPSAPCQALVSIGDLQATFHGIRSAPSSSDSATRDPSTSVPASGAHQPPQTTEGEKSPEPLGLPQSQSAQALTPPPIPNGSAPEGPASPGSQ

[3] = molecular target: T3, FLAG-PP6c (human) (UniProt O00743)
T3 sequence: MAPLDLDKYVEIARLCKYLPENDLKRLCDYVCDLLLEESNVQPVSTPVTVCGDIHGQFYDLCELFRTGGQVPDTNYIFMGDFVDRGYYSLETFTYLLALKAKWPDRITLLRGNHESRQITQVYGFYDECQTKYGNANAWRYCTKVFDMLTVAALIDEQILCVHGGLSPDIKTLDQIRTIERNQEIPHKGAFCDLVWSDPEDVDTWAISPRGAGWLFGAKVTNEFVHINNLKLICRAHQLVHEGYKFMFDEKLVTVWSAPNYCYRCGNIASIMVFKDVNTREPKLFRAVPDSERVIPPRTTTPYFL

Measured: binding

HA-Rab40c (from UniProt Q96S21 1-281)
binds: all assays above
